The experiment concerns the target agarose-conjugated nucleotide-free RhoA mutant (RhoA^G17A) (UniProt P61586). In words: pull-down; RhoA^G17A agarose beads (40 ul bed volume) rotated 30 min with 1 mg lysate of hearts or cardiac cells; RhoGEF buffer: 20 mM HEPES pH 7.5, 150 mM NaCl, 1% Triton X-100, 5 mM MgCl2, 1 mM DTT; mouse hearts sham or 1 week after TAC, TRPC3+/+ or TRPC3-/-; NRCMs with or without mechanical stretch, TRPC3 or Nox2 siRNA, DPI, taxol, okadaic acid; rat fibroblasts with or without TGF-beta2 and TRPC3 siRNA; read out as GEF-H1 activation; only the target purified.

The chains behind the UniProt entries cited, without tags or fusion partners. Where a name states a change or a piece, a line headed by the entry shows the natural chain unless it says otherwise.
UniProt P61586: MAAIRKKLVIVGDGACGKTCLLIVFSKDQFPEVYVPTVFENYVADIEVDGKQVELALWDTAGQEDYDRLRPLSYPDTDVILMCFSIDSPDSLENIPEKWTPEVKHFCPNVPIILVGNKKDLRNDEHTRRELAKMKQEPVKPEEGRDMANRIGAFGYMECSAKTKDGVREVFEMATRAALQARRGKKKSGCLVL

These are yes or no findings as the source states them, for the method shown. In cells and extracts the contact can be indirect. Some results given as binding are weak or reduced against the parent protein; the word gives no strength.

B1: GEF-H1 (microtubule-associated Rho guanine nucleotide exchange factor), mouse (protein, UniProt Q60875 1-985)
chain: MSRIESLTRARIDRSKEQATKTREKEKMKEAKDARYTNGHLFTTISVSGMTMCYACNKSITAKEALICPTCNVTIHNRCKDTLANCTKVKQKQQKAALLRNNTALQSVSLRSKTTTRERPTSAIYPSDSFRQSLLGSRRGLSSLSLAKSVSTTNIAGHFNDESPLGLRQILSQSTDSLNMRNRTLSVESLIDEGVEVFYNELMSDFEMDEKDFEADSWSLAVDSSFLQQHKKEVMKKQDVIYELIQTELHHVRTLKIMTRLFRTGMLEELQMEPEVVQGLFPCVDELSDIHTRFLNQLLERRRQALCPGSTRNFVIHRLGDLLISQFSGSNAEQMRKTYSEFCSRHTKALKLYKELYARDKRFQQFIRKMTRSAVLKRHGVQECILLVTQRITKYPVLINRILQNSHGVEEEYQDLASALGLVKELLSNVDQDVHELEKEARLQEIYNRMDPRAQTPVPGKGPFGRDELLRRKLIHEGCLLWKTATGRFKDVLLLLMTDVLVFLQEKDQKYIFTSLDKPSVVSLQNLIVRDIANQAKGMFLISSGPPEMYEVHAASRDDRTTWIRVIQQSVRLCPSREDFPLIETEDKAYLRRIKTKLQQKNQALVELLQKNVELFAEMVHFQALKAGFVGMPPPALPRGLFRLESFESLRGERLLKDALREVEGLKDLLLGPCVDLPMTSREPALPLDSDSGSCPGVTANGEARTFNGSIELCRADSDSSQKDRNGNQLRSPQEEVLQPLINLYGLLHGLQAVVVQQERLMEALFPEGPERWEKLSRANSRDGEAGRAAVASVTPEKQATELALLQRQHTLLQEELRRCQRLGEERATEAGSLEARLRESEQARALLEREAEEIRRQLAALGQNEPLPAEAPWARRPLDPRRRSLPAGDALYLSFNPPQPSRGHDRLDLPVTVRSLHRPFDDREAQELGSPEDRLQDSSDPDTGSEEEVSSRLSPPHSPRDFTRMQDIPEETESRDGEPTASES
For B1, the binding result is reported as “binds”.

B2: GEF-H1 (microtubule-associated Rho guanine nucleotide exchange factor), rat (protein, UniProt Q5FVC2 1-985)
chain: MSRIESLTRARIDRSKEQATKTREKEKMKEAKDARYTNGHLFTTISVSGMTMCYACNKSITAKEALICPTCNVTIHNRCKDTLANCTKVKQKQQKAALLRNNTALQSVSLRSKTTTRERPTSAIYPSDSFRQSLLGSRRGLSSLSLAKSVSTTNIAGHFNDESPLGLRQILSQSTDSLNMRNRTLSVESLIDEGVEVFYNELMSDFEMDEKDFEADSWSLAVDSSFLQQHKKEVMKKQDVIYELIQTELHHVRTLKIMTRLFRTGMLEELQMEPEVVQGLFPCVDELSDIHTRFLSQLLERRRQALCPGSTRNFVIHRLGDLLISQFSGSNAEQMRKTYSEFCSRHTKALKLYKELYARDKRFQQFIRKMTRSAVLKRHGVQECILLVTQRITKYPVLINRILQNSHGIEEEYQDLAAALGLVKELLSNVDQDVHELEKEARLQEIYNRMDPRAQTPVPGKGPFGRDELLRRKLIHDGCLLWKTATGRFKDVLLLLMTDVLVFLQEKDQKYIFTSLDKPSVVSLQNLIVRDIANQAKGMFLISSGPPEMYEVHAASRDDRTTWIRVIQQSVRLCPSREDFPLIETEDKAYLRRIKTKLQQKNQALVELLQMNVELFAEMVHFQALKAGFIGMPPPTLPRGLFRLESFESLRGERLLKDALREVEGLKDLLLGPCVDLPLTAREPALPVEADSGSCPGVTANGEARTFNGSIELCRADSDSSQKDRNGNQLRSPQEEALQPLVNLYGLLQGLQAVVVQQERLMEALFPEGPERWEKLSRANSRDGEAGRAAVASVTPEKQATELALLQRQHSLLQEELRRCQRLGEERATEAGSLEARLRESEQARALLEREAEEIRRQLAALGQNEPLPAEAPWARRPLDPRRRSLPAGDALYLSFNPPQPSRGHDRLDLPVTVRSLHRPFDDREAQELGSPEDRLQDSSDPDTCSEEEVSSRLSPPHSPRDFTRMQDIPEETESRDGEPTASES
Turning to B2, the binding entry is “binds”.

These data come from article PMC5171702.
